From patent US20160290999A1 (SYSMEX, published 2016)
No constants are given. Whether binding was seen depends on the method and setting. Some entries that bind do so weakly or less than the wild type.

Sequences of proteins named here, by UniProt entry; tags and fusion partners are left off. Residues count along the entry.
UniProt P02768, residues 25-609: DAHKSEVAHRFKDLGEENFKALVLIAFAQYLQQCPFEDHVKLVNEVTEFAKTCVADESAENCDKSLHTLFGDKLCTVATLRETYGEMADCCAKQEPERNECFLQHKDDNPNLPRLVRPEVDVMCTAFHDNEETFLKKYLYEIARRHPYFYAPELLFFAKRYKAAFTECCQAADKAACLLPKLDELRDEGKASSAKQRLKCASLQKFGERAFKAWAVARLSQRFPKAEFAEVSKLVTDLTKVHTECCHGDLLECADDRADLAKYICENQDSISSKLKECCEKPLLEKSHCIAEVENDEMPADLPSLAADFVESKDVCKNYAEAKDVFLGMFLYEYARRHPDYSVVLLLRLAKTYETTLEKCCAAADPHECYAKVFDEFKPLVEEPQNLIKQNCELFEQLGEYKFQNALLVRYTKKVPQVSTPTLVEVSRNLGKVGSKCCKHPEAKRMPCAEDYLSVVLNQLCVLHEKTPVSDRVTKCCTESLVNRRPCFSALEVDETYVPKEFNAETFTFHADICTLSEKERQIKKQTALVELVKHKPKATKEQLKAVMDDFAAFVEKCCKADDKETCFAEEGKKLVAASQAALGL

Experiments:
Human serum albumin [1] = molecular target: T1, Human serum albumin (human, UniProt P02768 25-609); assay: hydrothermal treatment at 160° C. in human serum, red colour of the insoluble fraction
T1 construct: Purchased protein used in solution; In the hydrothermal experiments it is heat-aggregated into an insoluble precipitate; also called HSA

Human serum albumin [2] = molecular target: T1, Human serum albumin; assay: hydrothermal treatment of TMR-labeled SA21 with 300 µM HSA, SDS-PAGE of the supernatant and visual inspection

binding (Human serum albumin [1]): binds | binding (Human serum albumin [2]): binds
B1: TMR-labeled SA21 (peptide)
peptide: DDEWLCGWRPLCIDEILR
modifications: tetramethyl rhodamine (TMR) label, site not stated
